No constants are given. Whether binding was seen depends on the method and setting. A result given as binding can be weak or reduced; the word gives no strength. For part of these data: Sequences can lack the tags named with a protein.
Assays:
[1] = target: T1, NOD1, endogenous in MDA-MB-231 cells (human (endogenous in MDA-MB-231)) (UniProt Q9Y239); test: flow cytometry on cells; cells treated with graded concentrations (0-20 nmol/L) of HIS-tagged BFT-1 for 30 min, stained with anti-HIS antibody; dead cells excluded with DAPI; NOD1-overexpressing against empty vector 4T1 cells, shCTRL against NOD1-knockdown MDA-MB-231 cells; only the binder purified
T1 sequence: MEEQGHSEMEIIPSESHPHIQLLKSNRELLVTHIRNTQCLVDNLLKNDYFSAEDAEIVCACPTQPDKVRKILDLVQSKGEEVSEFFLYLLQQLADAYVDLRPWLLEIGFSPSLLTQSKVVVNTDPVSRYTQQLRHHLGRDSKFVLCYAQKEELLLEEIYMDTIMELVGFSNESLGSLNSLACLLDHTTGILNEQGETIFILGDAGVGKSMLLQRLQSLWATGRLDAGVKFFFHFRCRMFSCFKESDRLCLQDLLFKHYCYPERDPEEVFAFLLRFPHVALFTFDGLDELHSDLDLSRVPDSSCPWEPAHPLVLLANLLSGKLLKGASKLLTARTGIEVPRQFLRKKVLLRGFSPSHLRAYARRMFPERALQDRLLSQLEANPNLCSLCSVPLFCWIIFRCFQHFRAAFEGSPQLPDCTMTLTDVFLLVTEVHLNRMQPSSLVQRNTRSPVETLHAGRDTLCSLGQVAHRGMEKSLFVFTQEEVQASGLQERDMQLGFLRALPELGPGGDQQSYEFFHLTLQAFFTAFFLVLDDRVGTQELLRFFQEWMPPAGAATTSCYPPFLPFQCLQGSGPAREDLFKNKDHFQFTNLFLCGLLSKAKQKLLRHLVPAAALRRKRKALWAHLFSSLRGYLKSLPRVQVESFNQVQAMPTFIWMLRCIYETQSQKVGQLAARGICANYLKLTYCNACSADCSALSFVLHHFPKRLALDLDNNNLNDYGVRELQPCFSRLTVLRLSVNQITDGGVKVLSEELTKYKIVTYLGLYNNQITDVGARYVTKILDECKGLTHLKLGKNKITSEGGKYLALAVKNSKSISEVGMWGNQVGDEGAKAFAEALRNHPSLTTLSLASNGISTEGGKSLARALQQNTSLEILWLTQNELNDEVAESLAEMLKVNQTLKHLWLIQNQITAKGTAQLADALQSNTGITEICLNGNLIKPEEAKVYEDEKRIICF

[2] = target: T2, NOD1 overexpressed in 4T1 cells (human) (UniProt Q9Y239); test: as above
T2 sequence: T1 sequence

[3] = target: T3, FLAG-tagged NOD1, purified protein (human) (UniProt Q9Y239); test: pull-down; in vitro GST pull-down with purified recombinant proteins; which partner was held on the beads is not told; both purified
T3 sequence: T1 sequence

Measured: binding

HIS-tagged BFT-1 (Bacteroides fragilis toxin 1) (enterotoxigenic Bacteroides fragilis)
binds: all assays above

Reference: publication PMC11131025
